PubChem BioAssay AID504791, Drosophila RNAi Screening Center, 2011

Assay: 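Genes whose knock-down strengthens or weakens small-RNA reporter silencing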 (primary screen)
Cell system: Drosophila S2-derived reporter cells
Reagent: long dsRNA against Drosophila genes, about 150-250 ng dsRNA per well (siRNA assay); about 80-120 ng (miRNA assay)
Timing: about 5 days (siRNA assay); about 4 days (miRNA assay)
Conditions: copper sulfate induction of reporters: 25 µM (siRNA assay); 200 mM stated (miRNA assay), 1-2 days before reading
Measured: 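Per-well ratio of Renilla over firefly light, expressed relative to that plate's average ratio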
Units: stable assay Renilla, run 1 in luminescence; stable assay firefly, run 1 in luminescence
Hit rule: 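First-pass picks had plate-scaled ratios over 1.5 for the siRNA assay, over 1.6 for the miRNA assay, or under 0.6; two distinct dsRNAs had to score alike on retest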
The deposit covers about 23,000 reagents; shown is a random part of those that have a named target and a result. Over the whole deposit, 199 (0.86%) got an active call. 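Plate-scaled ratios behind the calls are not deposited; printed light signals are raw; many rows marked increased or decreased are still called inactive.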 Not stated in the record: the direction of the score.

Dora [DRSC19614]: stable assay Renilla, run 1 = 5079; stable assay firefly, run 1 = 3.54e5; call = inactive
Dora [DRSC19781]: stable assay Renilla, run 1 = 4883; stable assay firefly, run 1 = 3.93e5; call = inactive
Dora [DRSC20034]: stable assay Renilla, run 1 = 4932; stable assay firefly, run 1 = 3.89e5; call = inactive
Dora [DRSC20035]: stable assay Renilla, run 1 = 6094; stable assay firefly, run 1 = 3.56e5; call = inactive
cu [DRSC15643]: stable assay Renilla, run 1 = 5799; stable assay firefly, run 1 = 3.42e5; call = inactive
cu [DRSC15648]: stable assay Renilla, run 1 = 5864; stable assay firefly, run 1 = 3.66e5; call = inactive
Sr-CIV [DRSC00575]: stable assay Renilla, run 1 = 7054; stable assay firefly, run 1 = 3.86e5; call = inactive
CG18343 [DRSC06726]: stable assay Renilla, run 1 = 6690; stable assay firefly, run 1 = 4.53e5; call = inactive
CG5516 [DRSC15826]: stable assay Renilla, run 1 = 6814; stable assay firefly, run 1 = 4.40e5; call = inactive
CG5516 [DRSC21753]: stable assay Renilla, run 1 = 8778; stable assay firefly, run 1 = 6.19e5; call = inactive
Appl [DRSC17728]: stable assay Renilla, run 1 = 8027; stable assay firefly, run 1 = 3.69e5; call = inactive
Appl [DRSC27476]: miRNA reporter change = reporter ratio lowered past the hit cutoff; call = inactive
Dyb [DRSC07208]: stable assay Renilla, run 1 = 5643; stable assay firefly, run 1 = 5.13e5; call = inactive
Dyb [DRSC22862]: stable assay Renilla, run 1 = 5375; stable assay firefly, run 1 = 5.52e5; call = inactive
CG2157 [DRSC19836]: stable assay Renilla, run 1 = 4812; stable assay firefly, run 1 = 3.83e5; call = inactive
CG15169 [DRSC02470]: stable assay Renilla, run 1 = 6435; stable assay firefly, run 1 = 4.03e5; call = inactive
Cpr47Ee [DRSC06343]: stable assay Renilla, run 1 = 5615; stable assay firefly, run 1 = 2.25e5; call = inactive
Cpr47Ee [DRSC23164]: stable assay Renilla, run 1 = 5919; stable assay firefly, run 1 = 3.24e5; call = inactive
CG4972 [DRSC02798]: stable assay Renilla, run 1 = 8447; stable assay firefly, run 1 = 4.51e5; call = inactive
GCC88 [DRSC14264]: stable assay Renilla, run 1 = 6496; stable assay firefly, run 1 = 3.99e5; call = inactive
Vha14-1 [DRSC07571]: stable assay Renilla, run 1 = 6654; stable assay firefly, run 1 = 4.01e5; call = inactive
dati [DRSC17128]: stable assay Renilla, run 1 = 8146; stable assay firefly, run 1 = 4.70e5; call = inactive
dati [DRSC17153]: stable assay Renilla, run 1 = 5802; stable assay firefly, run 1 = 3.04e5; call = inactive
alpha-Man-Ib [DRSC14418]: stable assay Renilla, run 1 = 9000; stable assay firefly, run 1 = 7.17e5; call = inactive
CG7824 [DRSC16321]: stable assay Renilla, run 1 = 5911; stable assay firefly, run 1 = 3.40e5; call = inactive
CG8136 [DRSC16385]: stable assay Renilla, run 1 = 6423; stable assay firefly, run 1 = 3.32e5; call = inactive
sprt [DRSC07323]: stable assay Renilla, run 1 = 8345; stable assay firefly, run 1 = 5.14e5; call = inactive
CG7953 [DRSC01902]: miRNA reporter change = reporter ratio lowered past the hit cutoff; stable assay Renilla, run 1 = 6810; stable assay firefly, run 1 = 1.67e6; call = inactive

In a second layout: results already given.
{"Gene": "CG5516", "DRSC id": "DRSC15826", "stable assay Renilla, run 1": 6814, "stable assay firefly, run 1": 4.40e5, "call": "inactive"}
{"Gene": "CG5516", "DRSC id": "DRSC21753", "stable assay Renilla, run 1": 8778, "stable assay firefly, run 1": 6.19e5, "call": "inactive"}
